{"source": "patent US20180368457A1", "about": "(Petiva Private Limited, priority 2015, published 2018)", "origin": "cited, not measured here", "conditions": "for sweetness, of the sweetness of sucrose: pure sugar relative to sucrose", "data": [{"compound": "OC[C@H]1O[C@](O)(CO[C@H]2O[C@H](CO)[C@@H](O)[C@H](O)[C@H]2O)[C@@H](O)[C@@H]1O", "note": "[trehalulose, 1-O-α-D-glucopyranosyl-β-D-fructofuranose]", "values": [{"measurement": "sweetness, of the sweetness of sucrose", "value": "about 60%"}]}, {"compound": "O=C(CO)[C@H](O)[C@H](O)[C@H](O)CO", "note": "[allulose, D-Psicose]", "values": [{"measurement": "sweetness, of the sweetness of sucrose", "value": 70, "unit": "%"}]}, {"compound": "OCC1O[C@H](OC[C@H]2O[C@](O)(CO)C(O)C2O)C(O)C(O)[C@@H]1O", "note": "(stereo partly drawn) [isomaltulose, Isomaltulose]", "values": [{"measurement": "sweetening power related to sucrose", "setting": "in 10% solution", "value": 0.18}]}]}
